PubChem BioAssay AID504808 | Drosophila RNAi Screening Center – 2011

Test: 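Fly genes required to hold E2F transcription in check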 (primary screen)
Cells: Drosophila S2 cells
Knock-down reagent: long dsRNA against Drosophila genes
Measurement: 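Firefly luciferase driven by E2F sites, normalised to Renilla luciferase on the same minimal promoter, measured by plate reader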
Direction: E2F firefly: higher = more E2F reporter activity; Renilla normaliser: higher = more normaliser reporter signal
Hit rule: 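Called active if the normalised E2F reporter went up by over 50%; the cutoff is arbitrary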
The deposit covers about 21,000 reagents; shown is an unselected part of those that have a named target and a result. Over the whole deposit, 18 (0.084%) got an active call. 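Raw counts without plate normalisation, one of two replicates; the ratio scores behind the calls were not deposited.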 Unmarked entries are inactive. Names joined by + are all predicted targets of the reagent. The record does not give: the amount of reagent, the time to read-out.

gene	DRSC id	E2F firefly, rep 1	Renilla normaliser, rep 1
CtsL3 (Cathepsin L3)	DRSC12171	69062	3638
PICK1 (Protein interacting with C kinase 1)	DRSC02936	1.08e5	4127
SkpE (SKP1-related E)	DRSC19431	1.48e5	5216
Ostgamma (Oligosaccharide transferase gamma subunit)	DRSC03074	93628	4174
Uros2 (Uroporphyrinogen III synthase 2)	DRSC16505	1.20e5	6014
Cpr100A (Cuticular protein 100A)	DRSC14465	1.28e5	6202
CG14118	DRSC10122	1.29e5	7309
ND-24 (NADH dehydrogenase (ubiquinone) 24 kDa subunit)	DRSC19960	1.59e5	5638
bcd + CR14578	DRSC20984	1.37e5	6252
CG2841	DRSC17699	83273	2936
CG2841	DRSC18824	97457	5357
CG33095	DRSC14441	1.17e5	6257
CG3347	DRSC00597	1.54e5	4856
alc (alicorn)	DRSC07062	1.48e5	4845
RpL39 (Ribosomal protein L39)	DRSC04651	94403	4917
dpr18 (defective proboscis extension response 18)	DRSC19606	1.46e5	7060
CG7763	DRSC07043	1.08e5	4201
CG13766	DRSC02271	1.48e5	5344
CG10462	DRSC02058	84742	257
CG15141	DRSC02441	79663	3306
CG15141	DRSC02442	99532	4146
Skp2 + CG1103	DRSC12160	80740	3849
Fip1 (Factor interacting with poly(A) polymerase 1)	DRSC12147	73351	3198
ssh (slingshot)	DRSC16730	1.19e5	5957
CG4291	DRSC00650	78949	3801
CG30492 (retired record) + M7BP	DRSC05053	1.42e5	5607
CG30492 (retired record) + M7BP	DRSC05054	1.29e5	5549
CG30492 (retired record) + M7BP	DRSC05055	1.44e5	5334
CG30492 (retired record) + M7BP	DRSC06701	1.35e5	4791
CG30492 (retired record) + M7BP	DRSC06816	1.38e5	4934
Chpf (Chondroitin polymerizing factor)	DRSC19491	76060	5999
Chpf (Chondroitin polymerizing factor)	DRSC19893	8228	728
Mvk + CG33672 + spt4	DRSC05356	1.38e5	5621
Mvk + CG33672 + spt4	DRSC06628	3173	217
CG14247	DRSC14742	1.00e5	5741
CG34425	DRSC12210	1.38e5	7886
kl-2 (male fertility factor kl2)	DRSC21136	1.37e5	6654
rad50	DRSC04523	76201	3253
trr (trithorax-related)	DRSC18845	2062	864
CG17199	DRSC15192	1.38e5	6849
Bin1 (Bicoid interacting protein 1)	DRSC16843	1.13e5	6445
wol (wollknaeuel)	DRSC03077	92396	3460
Cul5 (Cullin 5)	DRSC14723	1.08e5	5882
Acp76A (Accessory gland protein 76A)	DRSC09665	1.33e5	5714
RalGPS (Ral GEF with PH domain and SH3 binding motif)	DRSC06941	62158	3036
CG1902	DRSC06798	2622	210
Rs1	DRSC05945	3183	250
Gbeta13F (G protein beta subunit 13F)	DRSC20247	7740	708
Lsd-1 (Lipid storage droplet-1)	DRSC14236	74369	2980
Ccp84Aa	DRSC12586	1.31e5	6245
CG43773	DRSC00287	1.64e5	5623
CG43773	DRSC00288	1.47e5	4921
Roc1a (Regulator of cullins 1a)	DRSC18483	95794	7080
CG2258	DRSC18222	7630	728
CycB3 (Cyclin B3)	DRSC16618	99532	5209
Mks1 (Meckel syndrome, type 1)	DRSC19697	80789	4463
CG43658	DRSC20111	2.09e5	7034
mRNA-cap (mRNA-capping-enzyme)	DRSC19789	1.01e5	5450
Orc2 (Origin recognition complex subunit 2)	DRSC16776	70064	3190
CG7365	DRSC10824	85499	3806
CG10185	DRSC14205	1.12e5	6235
CG32686	DRSC17645	93202	2949
Cp38 (Chorion protein 38)	DRSC18453	37531	3924
Sox102F	DRSC17204	1932	832
Hsc70-3 (Heat shock protein 70 cognate 3)	DRSC20253	66813	5751
CG8152	DRSC07083	1.02e5	3585
CG34107	DRSC14554	1.44e5	6379
CG32040	DRSC08981	1.39e5	5281
Ir92a (Ionotropic receptor 92a)	DRSC15111	1.52e5	7661
CG13454	DRSC10001	59523	3285
CG4945	DRSC06904	65057	2968
ix (intersex)	DRSC06325	82606	4581
mei-S332 (meiotic from via Salaria 332)	DRSC04704	80366	3564
nAChRbeta2 (nicotinic Acetylcholine Receptor beta2)	DRSC17010	65013	4318
rho-7 (rhomboid-7)	DRSC07304	1.07e5	4394
CG8051	DRSC20077	1.36e5	352
CG9992	DRSC20226	8316	816
TBC1d7 + mRpS24	DRSC14611	1.02e5	5403
Cyp6g1 (Cytochrome P450 6g1)	DRSC07386	2632	223
sut4 (sugar transporter 4)	DRSC07703	3002	227
CG13055	DRSC09936	1.48e5	8223
Kdsr (3-ketodihydrosphingosine reductase)	DRSC14245	59091	3488
CG32812	DRSC18478	79031	4365
NimC1 (Nimrod C1)	DRSC01879	98773	4142
CG13326	DRSC06363	107	41
Srp19 (Signal recognition particle 19)	DRSC11288	90879	3986
CG14877	DRSC15001	1.22e5	6753
Apt1 (Acyl-protein thioesterase 1)	DRSC10348	1.16e5	6124
Cth (Cystathionine gamma-lyase)	DRSC07422	68806	3431
CG12391	DRSC06147	2831	170
Hr39 (Hormone receptor-like in 39)	DRSC03346	75522	3767
ort (ora transientless)	DRSC16240	1.55e5	7523
TwdlU (TweedleU)	DRSC12224	1.23e5	5226
Ent2 (Equilibrative nucleoside transporter 2)	DRSC02124	90711	3509
Mybbp1A (MYB binding protein 1a)	DRSC18788	1744	896
CG17019	DRSC06642	3022	191
mgr (merry-go-round)	DRSC16099	1.44e5	7051
JIL-1 (JIL-1 kinase)	DRSC11200	65059	3051
Dnaaf5 (Dynein axonemal assembly factor 5)	DRSC13032	95204	3296
Mal-A8 (Maltase A8)	DRSC07234	1.52e5	5275
CG11841	DRSC14399	1776	984
RunxB (Runt related B)	DRSC20395	80073	2587
RunxB (Runt related B)	DRSC20525	1.25e5	4572
RunxB (Runt related B)	DRSC20526	95023	5246
gammaTub23C (gamma-Tubulin at 23C)	DRSC00820	83028	3501
CG14269	DRSC17912	1.08e5	5281
CG7600	DRSC09681	69844	3950

Reformatted: entries from further up.
Roc1a (Regulator of cullins 1a) [DRSC18483]
- E2F firefly, rep 1: 95794
- Renilla normaliser, rep 1: 7080

CG2258 [DRSC18222]
- E2F firefly, rep 1: 7630
- Renilla normaliser, rep 1: 728

CycB3 (Cyclin B3) [DRSC16618]
- E2F firefly, rep 1: 99532
- Renilla normaliser, rep 1: 5209

Mks1 (Meckel syndrome, type 1) [DRSC19697]
- E2F firefly, rep 1: 80789
- Renilla normaliser, rep 1: 4463

CG43658 [DRSC20111]
- E2F firefly, rep 1: 2.09e5
- Renilla normaliser, rep 1: 7034

mRNA-cap (mRNA-capping-enzyme) [DRSC19789]
- E2F firefly, rep 1: 1.01e5
- Renilla normaliser, rep 1: 5450

Orc2 (Origin recognition complex subunit 2) [DRSC16776]
- E2F firefly, rep 1: 70064
- Renilla normaliser, rep 1: 3190

CG7365 [DRSC10824]
- E2F firefly, rep 1: 85499
- Renilla normaliser, rep 1: 3806

CG10185 [DRSC14205]
- E2F firefly, rep 1: 1.12e5
- Renilla normaliser, rep 1: 6235

CG32686 [DRSC17645]
- E2F firefly, rep 1: 93202
- Renilla normaliser, rep 1: 2949

Cp38 (Chorion protein 38) [DRSC18453]
- E2F firefly, rep 1: 37531
- Renilla normaliser, rep 1: 3924

Sox102F [DRSC17204]
- E2F firefly, rep 1: 1932
- Renilla normaliser, rep 1: 832

Hsc70-3 (Heat shock protein 70 cognate 3) [DRSC20253]
- E2F firefly, rep 1: 66813
- Renilla normaliser, rep 1: 5751

CG8152 [DRSC07083]
- E2F firefly, rep 1: 1.02e5
- Renilla normaliser, rep 1: 3585

CG34107 [DRSC14554]
- E2F firefly, rep 1: 1.44e5
- Renilla normaliser, rep 1: 6379
